Source: publication PMC3823855
No constants are given. Whether binding was seen depends on the method and setting. Binding seen in cells or lysates may run through a third protein. Some entries that bind do so weakly or less than the wild type.

The chains behind the UniProt entries cited, without tags or fusion partners.
UniProt P45481: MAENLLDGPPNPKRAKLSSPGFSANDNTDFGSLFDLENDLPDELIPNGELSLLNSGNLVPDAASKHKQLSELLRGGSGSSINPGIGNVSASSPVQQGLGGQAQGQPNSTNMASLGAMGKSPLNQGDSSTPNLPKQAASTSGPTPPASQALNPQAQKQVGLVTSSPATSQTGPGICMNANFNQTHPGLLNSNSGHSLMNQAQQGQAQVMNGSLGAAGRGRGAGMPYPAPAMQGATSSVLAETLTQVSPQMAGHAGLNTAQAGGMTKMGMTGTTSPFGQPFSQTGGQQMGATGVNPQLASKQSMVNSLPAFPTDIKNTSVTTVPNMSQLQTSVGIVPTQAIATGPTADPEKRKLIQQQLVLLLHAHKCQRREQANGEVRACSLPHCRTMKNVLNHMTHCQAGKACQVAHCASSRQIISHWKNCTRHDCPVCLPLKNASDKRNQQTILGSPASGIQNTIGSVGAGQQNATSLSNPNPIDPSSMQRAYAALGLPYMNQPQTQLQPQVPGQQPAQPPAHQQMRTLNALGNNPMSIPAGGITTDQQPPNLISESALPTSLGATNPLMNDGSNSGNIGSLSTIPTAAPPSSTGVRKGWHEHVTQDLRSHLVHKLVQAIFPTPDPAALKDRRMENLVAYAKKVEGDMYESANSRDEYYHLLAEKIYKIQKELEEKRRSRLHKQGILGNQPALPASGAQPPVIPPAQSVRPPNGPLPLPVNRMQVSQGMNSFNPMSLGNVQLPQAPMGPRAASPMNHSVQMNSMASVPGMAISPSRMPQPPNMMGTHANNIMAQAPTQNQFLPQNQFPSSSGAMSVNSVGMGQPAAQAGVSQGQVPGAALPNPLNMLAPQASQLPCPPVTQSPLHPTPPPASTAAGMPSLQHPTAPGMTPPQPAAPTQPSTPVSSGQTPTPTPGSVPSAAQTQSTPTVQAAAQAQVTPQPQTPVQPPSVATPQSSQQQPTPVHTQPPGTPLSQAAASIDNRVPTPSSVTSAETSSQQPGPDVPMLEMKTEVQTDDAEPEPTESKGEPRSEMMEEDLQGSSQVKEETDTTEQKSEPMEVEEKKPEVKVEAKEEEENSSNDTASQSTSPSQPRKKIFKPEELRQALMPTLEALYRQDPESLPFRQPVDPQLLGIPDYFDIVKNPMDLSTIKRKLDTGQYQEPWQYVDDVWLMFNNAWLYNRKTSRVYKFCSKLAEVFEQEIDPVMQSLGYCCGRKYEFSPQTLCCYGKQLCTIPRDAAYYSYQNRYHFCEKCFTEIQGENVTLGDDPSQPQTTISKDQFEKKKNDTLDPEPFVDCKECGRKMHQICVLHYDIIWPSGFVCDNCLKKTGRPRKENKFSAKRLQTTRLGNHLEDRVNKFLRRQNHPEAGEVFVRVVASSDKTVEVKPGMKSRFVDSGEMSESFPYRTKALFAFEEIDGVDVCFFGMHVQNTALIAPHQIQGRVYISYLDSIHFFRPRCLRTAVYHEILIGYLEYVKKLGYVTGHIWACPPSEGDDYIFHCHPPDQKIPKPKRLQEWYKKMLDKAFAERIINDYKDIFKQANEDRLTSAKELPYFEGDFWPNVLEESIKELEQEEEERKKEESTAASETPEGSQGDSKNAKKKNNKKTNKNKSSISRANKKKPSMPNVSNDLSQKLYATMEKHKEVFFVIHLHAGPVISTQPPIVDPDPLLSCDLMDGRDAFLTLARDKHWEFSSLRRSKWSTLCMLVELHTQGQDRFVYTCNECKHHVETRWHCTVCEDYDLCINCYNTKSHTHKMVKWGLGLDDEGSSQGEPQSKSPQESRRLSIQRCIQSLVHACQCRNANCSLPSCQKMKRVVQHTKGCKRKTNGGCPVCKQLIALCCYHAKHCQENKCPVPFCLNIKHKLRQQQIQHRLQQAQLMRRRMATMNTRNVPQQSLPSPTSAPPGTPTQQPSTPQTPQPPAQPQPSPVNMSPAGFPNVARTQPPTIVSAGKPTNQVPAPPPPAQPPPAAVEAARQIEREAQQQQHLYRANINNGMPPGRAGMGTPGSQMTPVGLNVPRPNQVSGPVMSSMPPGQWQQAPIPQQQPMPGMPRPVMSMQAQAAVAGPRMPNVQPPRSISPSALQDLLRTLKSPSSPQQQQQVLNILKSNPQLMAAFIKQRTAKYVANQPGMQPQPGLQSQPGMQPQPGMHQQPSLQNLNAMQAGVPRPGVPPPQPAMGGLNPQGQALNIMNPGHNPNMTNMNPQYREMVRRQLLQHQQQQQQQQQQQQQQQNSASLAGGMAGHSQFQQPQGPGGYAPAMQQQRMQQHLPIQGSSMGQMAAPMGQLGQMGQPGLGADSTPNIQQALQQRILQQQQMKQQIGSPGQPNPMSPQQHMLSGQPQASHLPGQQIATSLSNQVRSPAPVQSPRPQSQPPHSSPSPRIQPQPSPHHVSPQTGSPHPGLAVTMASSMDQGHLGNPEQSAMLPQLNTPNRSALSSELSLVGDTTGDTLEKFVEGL
UniProt Q01147: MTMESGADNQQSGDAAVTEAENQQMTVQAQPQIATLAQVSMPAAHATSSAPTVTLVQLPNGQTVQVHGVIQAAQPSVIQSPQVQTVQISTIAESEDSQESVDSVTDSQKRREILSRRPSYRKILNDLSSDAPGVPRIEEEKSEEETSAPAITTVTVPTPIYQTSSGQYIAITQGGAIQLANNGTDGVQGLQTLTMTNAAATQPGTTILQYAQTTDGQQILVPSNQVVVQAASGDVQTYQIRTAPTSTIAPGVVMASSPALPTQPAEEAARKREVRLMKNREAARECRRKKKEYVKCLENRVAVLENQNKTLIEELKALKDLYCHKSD
UniProt Q04207: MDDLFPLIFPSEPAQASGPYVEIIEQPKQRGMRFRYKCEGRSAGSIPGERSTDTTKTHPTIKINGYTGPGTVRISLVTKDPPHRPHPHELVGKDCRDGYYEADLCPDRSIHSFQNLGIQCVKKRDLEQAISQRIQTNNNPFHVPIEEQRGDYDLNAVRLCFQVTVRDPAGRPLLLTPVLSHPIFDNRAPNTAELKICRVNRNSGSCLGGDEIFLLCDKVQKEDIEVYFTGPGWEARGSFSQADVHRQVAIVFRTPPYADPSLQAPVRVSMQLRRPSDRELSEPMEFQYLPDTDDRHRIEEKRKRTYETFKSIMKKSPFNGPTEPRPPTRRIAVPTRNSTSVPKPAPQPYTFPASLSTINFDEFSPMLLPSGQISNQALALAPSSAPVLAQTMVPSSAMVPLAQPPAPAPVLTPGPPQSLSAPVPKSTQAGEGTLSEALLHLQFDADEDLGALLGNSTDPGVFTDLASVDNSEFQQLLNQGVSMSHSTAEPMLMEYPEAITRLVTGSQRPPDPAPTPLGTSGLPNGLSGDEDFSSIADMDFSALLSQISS

Experiments:
[1] = molecular target: CREB-binding protein (CBP) (mouse (endogenous in CATH.a)) (UniProt P45481); assay: co-IP; 100 µg pre-cleared CATH.a total lysate with anti-CBP, anti-CREB or anti-p65 NF-κB antibody and Protein G beads, overnight at 4°C; washes with 50 mM Tris-HCl pH 7.5, 150 mM NaCl, 1% Tween-20, 0.05% Na deoxycholate and 50 mM Tris-HCl pH 7.5, 75 mM NaCl, 0.1% Tween-20; western blot; cells with no ligand, Ang II, Los, Ang II+Los
[2] = molecular target: cAMP response element binding protein (CREB) (mouse (endogenous in CATH.a)) (UniProt Q01147); assay: as above

binding [1] | binding [2] | Substance
binds | – | cAMP response element binding protein (CREB) (from UniProt Q01147 1-327)
– | no binding | p65 NF-κB (from UniProt Q04207 1-549)
